Consider three molecules from paper doi:10.1101/2024.05.20.594848.

Chains of the proteins cited; added tags and fusions are not shown. Residues count along the entry.
UniProt Q91ZX7, residues 20-4545: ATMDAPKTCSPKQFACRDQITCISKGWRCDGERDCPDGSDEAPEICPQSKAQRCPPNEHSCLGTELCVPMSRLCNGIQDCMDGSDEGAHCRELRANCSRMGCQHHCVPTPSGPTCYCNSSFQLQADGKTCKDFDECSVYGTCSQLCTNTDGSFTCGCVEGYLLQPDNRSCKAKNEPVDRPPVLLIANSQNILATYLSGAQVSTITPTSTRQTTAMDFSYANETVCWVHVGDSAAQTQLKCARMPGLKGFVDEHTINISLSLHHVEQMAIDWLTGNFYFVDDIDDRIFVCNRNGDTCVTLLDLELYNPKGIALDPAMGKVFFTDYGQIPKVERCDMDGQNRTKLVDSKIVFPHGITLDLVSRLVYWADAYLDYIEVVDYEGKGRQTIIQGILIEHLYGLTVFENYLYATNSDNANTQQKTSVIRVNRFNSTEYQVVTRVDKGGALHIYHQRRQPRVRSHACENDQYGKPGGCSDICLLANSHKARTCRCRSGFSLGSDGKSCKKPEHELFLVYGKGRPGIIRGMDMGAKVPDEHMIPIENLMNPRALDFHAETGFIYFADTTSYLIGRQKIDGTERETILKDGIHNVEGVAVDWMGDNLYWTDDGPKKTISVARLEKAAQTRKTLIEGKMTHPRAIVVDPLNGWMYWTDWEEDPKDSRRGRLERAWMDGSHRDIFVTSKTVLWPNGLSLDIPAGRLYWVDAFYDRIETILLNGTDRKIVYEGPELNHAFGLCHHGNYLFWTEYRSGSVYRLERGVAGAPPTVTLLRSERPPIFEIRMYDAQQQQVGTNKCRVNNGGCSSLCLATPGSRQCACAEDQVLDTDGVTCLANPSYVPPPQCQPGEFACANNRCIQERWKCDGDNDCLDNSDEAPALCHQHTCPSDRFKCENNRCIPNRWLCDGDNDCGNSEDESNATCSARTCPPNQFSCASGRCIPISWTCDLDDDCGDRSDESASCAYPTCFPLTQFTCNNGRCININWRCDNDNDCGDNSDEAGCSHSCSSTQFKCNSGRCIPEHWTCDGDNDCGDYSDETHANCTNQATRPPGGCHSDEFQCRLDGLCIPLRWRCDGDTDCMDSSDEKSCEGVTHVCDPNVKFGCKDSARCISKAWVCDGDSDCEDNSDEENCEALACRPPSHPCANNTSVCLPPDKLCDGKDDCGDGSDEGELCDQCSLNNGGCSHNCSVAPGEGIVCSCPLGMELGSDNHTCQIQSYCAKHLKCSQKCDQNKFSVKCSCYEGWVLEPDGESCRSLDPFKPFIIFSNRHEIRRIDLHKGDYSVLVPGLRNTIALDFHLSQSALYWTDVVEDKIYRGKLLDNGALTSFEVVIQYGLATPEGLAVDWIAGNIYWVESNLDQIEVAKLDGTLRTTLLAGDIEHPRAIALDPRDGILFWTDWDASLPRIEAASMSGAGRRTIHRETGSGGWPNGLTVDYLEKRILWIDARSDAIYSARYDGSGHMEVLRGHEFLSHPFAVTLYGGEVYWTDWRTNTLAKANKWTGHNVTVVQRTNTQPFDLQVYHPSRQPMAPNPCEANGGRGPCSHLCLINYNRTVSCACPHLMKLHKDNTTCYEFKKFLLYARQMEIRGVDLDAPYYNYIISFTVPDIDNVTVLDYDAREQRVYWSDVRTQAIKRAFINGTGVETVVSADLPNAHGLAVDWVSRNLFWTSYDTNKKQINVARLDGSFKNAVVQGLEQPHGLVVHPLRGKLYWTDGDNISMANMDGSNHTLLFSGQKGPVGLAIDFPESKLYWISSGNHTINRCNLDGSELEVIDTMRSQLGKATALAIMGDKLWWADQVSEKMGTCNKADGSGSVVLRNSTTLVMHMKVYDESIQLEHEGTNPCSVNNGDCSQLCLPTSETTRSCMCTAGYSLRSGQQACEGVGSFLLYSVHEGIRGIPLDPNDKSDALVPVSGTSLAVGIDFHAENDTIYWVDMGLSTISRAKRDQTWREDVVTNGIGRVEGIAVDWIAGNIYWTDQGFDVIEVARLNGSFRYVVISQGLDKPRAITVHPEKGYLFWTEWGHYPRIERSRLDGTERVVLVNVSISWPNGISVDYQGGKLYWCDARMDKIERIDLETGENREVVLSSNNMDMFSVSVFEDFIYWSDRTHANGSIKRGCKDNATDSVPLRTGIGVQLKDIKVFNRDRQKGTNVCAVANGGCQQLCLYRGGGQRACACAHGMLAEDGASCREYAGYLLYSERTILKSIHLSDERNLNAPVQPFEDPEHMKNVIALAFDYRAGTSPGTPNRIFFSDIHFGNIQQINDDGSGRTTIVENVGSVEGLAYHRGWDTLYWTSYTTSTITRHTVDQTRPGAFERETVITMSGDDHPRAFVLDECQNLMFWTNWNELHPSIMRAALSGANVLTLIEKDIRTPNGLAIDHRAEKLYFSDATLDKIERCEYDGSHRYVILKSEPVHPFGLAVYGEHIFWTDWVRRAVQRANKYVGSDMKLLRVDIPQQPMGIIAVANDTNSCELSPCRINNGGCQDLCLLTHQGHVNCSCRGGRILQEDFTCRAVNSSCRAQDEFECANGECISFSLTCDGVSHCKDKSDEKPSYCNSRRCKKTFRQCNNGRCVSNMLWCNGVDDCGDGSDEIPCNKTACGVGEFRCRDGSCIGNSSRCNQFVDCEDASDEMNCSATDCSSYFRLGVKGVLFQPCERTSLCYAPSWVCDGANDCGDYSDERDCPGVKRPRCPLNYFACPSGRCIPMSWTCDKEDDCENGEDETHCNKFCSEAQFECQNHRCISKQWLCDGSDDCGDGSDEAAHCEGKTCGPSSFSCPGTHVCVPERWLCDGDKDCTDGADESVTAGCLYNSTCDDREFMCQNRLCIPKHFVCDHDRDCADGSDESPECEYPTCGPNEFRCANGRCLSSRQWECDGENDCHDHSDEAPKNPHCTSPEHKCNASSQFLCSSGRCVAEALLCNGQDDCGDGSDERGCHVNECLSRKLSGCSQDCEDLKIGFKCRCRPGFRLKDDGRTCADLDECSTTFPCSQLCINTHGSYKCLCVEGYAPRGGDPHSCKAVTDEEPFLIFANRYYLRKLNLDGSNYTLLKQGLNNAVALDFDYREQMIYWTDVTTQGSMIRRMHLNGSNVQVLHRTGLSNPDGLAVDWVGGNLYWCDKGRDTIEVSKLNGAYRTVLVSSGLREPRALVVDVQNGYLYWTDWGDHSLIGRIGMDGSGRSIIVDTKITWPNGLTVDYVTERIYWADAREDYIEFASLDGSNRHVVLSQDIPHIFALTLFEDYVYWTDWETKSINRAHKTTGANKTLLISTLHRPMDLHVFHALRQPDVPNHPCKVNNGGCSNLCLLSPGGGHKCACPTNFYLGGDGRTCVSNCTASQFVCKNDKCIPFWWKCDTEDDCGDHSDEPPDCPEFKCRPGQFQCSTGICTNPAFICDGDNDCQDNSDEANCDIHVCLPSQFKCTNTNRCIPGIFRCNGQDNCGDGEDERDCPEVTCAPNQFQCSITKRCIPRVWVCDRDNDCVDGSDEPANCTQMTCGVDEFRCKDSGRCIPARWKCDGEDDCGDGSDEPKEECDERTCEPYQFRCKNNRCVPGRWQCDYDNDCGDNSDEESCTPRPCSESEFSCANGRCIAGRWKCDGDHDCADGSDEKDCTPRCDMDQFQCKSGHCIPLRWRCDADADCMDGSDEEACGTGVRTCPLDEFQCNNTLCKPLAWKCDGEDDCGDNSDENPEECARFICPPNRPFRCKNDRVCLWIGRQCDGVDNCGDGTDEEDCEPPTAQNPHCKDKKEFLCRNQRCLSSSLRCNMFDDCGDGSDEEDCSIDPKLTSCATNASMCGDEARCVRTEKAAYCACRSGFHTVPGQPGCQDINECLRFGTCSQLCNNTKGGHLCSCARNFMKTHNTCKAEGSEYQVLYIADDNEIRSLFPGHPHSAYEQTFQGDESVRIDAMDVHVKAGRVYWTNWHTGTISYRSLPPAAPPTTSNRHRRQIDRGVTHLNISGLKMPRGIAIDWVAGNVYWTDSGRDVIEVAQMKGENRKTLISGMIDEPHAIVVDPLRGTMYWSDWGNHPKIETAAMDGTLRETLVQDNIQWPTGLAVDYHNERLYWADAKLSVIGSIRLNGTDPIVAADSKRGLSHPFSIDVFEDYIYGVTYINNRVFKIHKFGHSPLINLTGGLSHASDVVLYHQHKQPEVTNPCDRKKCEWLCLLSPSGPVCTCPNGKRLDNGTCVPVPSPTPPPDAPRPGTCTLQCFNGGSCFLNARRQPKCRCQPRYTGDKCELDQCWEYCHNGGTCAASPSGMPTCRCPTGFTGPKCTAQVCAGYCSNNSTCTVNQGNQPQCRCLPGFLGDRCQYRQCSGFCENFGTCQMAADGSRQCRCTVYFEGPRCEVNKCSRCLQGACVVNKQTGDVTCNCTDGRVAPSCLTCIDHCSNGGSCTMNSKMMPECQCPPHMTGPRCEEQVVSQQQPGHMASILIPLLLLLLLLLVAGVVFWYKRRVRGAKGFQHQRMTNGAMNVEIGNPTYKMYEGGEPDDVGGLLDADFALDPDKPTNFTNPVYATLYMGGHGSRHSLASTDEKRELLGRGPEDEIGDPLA
UniProt P35441, residues 19-1170: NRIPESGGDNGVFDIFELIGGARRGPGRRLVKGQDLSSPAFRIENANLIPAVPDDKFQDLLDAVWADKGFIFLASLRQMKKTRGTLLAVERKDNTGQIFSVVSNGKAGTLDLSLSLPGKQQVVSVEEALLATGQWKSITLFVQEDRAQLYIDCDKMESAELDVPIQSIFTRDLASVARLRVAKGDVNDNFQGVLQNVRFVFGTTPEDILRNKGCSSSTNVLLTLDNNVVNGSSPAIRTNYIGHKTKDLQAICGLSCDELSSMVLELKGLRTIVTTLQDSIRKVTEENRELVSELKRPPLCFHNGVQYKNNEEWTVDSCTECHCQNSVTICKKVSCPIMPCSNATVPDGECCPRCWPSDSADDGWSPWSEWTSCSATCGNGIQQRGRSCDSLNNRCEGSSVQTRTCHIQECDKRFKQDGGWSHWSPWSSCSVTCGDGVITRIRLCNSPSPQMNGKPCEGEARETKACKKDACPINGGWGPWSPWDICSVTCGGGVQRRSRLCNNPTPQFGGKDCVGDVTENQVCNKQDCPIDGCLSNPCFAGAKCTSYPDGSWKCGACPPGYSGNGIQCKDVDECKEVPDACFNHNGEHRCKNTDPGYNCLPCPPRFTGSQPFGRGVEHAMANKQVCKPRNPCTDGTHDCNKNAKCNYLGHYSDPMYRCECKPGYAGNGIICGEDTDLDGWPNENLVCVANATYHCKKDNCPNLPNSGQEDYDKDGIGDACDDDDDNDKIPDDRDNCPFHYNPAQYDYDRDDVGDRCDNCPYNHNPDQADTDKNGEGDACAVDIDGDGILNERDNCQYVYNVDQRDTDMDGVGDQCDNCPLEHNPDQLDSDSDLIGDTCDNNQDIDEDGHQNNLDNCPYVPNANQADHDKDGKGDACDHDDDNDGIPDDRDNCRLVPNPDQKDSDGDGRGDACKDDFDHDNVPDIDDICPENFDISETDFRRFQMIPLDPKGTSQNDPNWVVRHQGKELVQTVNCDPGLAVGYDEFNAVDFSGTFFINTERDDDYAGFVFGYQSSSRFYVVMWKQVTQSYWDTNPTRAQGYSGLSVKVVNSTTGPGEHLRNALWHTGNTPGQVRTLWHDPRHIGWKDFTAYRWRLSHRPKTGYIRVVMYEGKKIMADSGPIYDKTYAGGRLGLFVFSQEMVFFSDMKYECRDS

No constants are given. Whether binding was seen depends on the method and setting. For part of these data: In cells and extracts the contact can be indirect. Some results given as binding are weak or reduced against the parent protein; the word gives no strength. For part of these data: Where a sequence is shown, tags or fusion partners need not be part of it.

The target in assay [1] is T1, recombinant extracellular domain of mouse DCIR1 (mDCIR1-ECD), chemically biotinylated (mouse) (UniProt Q923C7).
T1 sequence (chain, biotin (chemical, EZ-Link Sulfo-NHS-LC-Biotin)): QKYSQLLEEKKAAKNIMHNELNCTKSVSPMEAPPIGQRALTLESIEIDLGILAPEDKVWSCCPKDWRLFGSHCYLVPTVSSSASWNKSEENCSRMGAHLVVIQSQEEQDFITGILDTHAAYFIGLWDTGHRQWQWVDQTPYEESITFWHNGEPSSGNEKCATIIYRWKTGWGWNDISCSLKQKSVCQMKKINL
The experiment in a line: pull-down.

Assay [2] concerns the target mouse LRP1 on HoxB8-derived macrophages (mouse (endogenous in HoxB8-derived macrophages)) (UniProt Q91ZX7). Briefly: flow cytometry on cells.

For “Thrombospondin 1 (THBS1) (from UniProt P35441 19-1170)”, in assay [1], the binding result is “binds weakly”.

B1: recombinant extracellular domain of mouse DCIR1 (mDCIR1-ECD) with N-terminal Avi-tag, enzymatically biotinylated (domain or fragment, UniProt Q9QZ15 70-238)
chain: QKYSQLLEEKKAAKNIMHNELNCTKSVSPMEDKVWSCCPKDWRLFGSHCYLVPTVSSSASWNKSEENCSRMGAHLVVIQSQEEQDFITGILDTHAAYFIGLWDTGHRQWQWVDQTPYEESITFWHNGEPSSGNEKCATIIYRWKTGWGWNDISCSLKQKSVCQMKKINL
modifications: biotin (enzymatic, BirA ligase)
In the case of B1, in assay [2], the binding entry was “binds”.

B2: extracellular domain of human DCIR (hDCIR-ECD) with N-terminal Avi-tag, enzymatically biotinylated (domain or fragment, UniProt Q9UMR7-1 70-237)
chain: QKYSQLLEKKTTKELVHTTLECVKKNMPVEETAWSCCPKNWKSFSSNCYFISTESASWQDSEKDCARMEAHLLVINTQEEQDFIFQNLQEESAYFVGLSDPEGQRHWQWVDQTPYNESSTFWHPREPSDPNERCVVLNFRKSPKRWGWNDVNCLGPQRSVCEMMKIHL
modifications: biotin (enzymatic, BirA ligase)
Turning to B2, in assay [2], the binding entry was “binds”.
